Substitutions are numbered along the chain they refer to. No constants are given. Whether binding was seen depends on the method and setting. Some binding calls cover weakened binding; strength is not graded here.
B1: MAdCAM Antibody Table 2 clone 4 (antibody, V domains shown)
VH: QVQLVQSGAEVKKPGASVKVSCKASGGTFSSYAISWVRQAPGQGLEWMGSINPSGDTTSYAQKFQGRVTMTRDTSTSTVYMELSSLRSEDTAVYYCAKDKAQWLVGYFDYWGQGTLVTVSS
VL: DIQMTQSPSSLSASVGDRVTITCQASQDISNSLNWYQQKPGKAPKLLIYAASSLQSGVPSRFSGSGSGTDFTLTISSLQPEDFATYYCQQSYSSVITFGQGTKVEIK
B2: MAdCAM Antibody Table 2 clone 6 (antibody, V domains shown)
VH: EVQLLESGGGLVQPGGSLRLSCAASGFTFNNYAFHWVRQAPGKGLEWVSRINSYGTSTTYADSVKGRFTISRDNSKNTLYLQMNSLRAEDTAVYYCAREGPVAGYWYFDLWGQGTLVTVSS
VL: DIQMTQSPSSLSASVGDRVTITCRASQIIGTNLAWYQQKPGKAPKLLIYGASSLQSGVPSRFSGSGSGTDFTLTISSLQPEDFATYYCQQSYRLPFTFGQGTKVEIK
B3: MAdCAM antibody Table 1 clone 60 (scFv)
scFv: EVQLLESGGGLVQPGGSLRLSCAASGFTFDDYTMHWVRQAPGKGLEWVSDISGSGGSTYYADSVKGRFTISRDNSKNTLYLQMNSLRAEDTAVYYCAKDVVVAGTPLHFDYWGQGTLVTVSSGGGGSGGGGSGGGGSGGGGSDIQMTQSPSSLSASVGDRVTITCQASQDISNYLNWYQQKPGKAPKLLIYAASYLQSGVPSRFSGSGSGTDFTLTISSLQPEDFATYYCQQAHNYPITFGQGTRLEIK
B4: MAdCAM antibody Table 1 clone 7 (scFv)
scFv: QVQLVQSGAEVKKPGASVKVSCKASGYTFTGYHIHWVRQAPGQGLEWMGIINPSGGSTIYAQKFQGRVTMTRDTSTSTVYMELSSLRSEDTAVYYCAKDWSSWYLGPFDYWGQGTLVTVSSGGGGSGGGGSGGGGSGGGGSDIQMTQSPSSLSASVGDRVTITCRASQNISSSLNWYQQKPGKAPKLLIYAASSLQSGVPSRFSGSGSGTDFTLTISSLQPEDFATYYCQQSYTTPYTFGQGTKVEIK
B5: MAdCAM antibody Table 1 clone 9 (scFv)
scFv: EVQLLESGGGLVQPGGSLRLSCAASGFTFSDYYMNWVRQAPGKGLEWVSVIGESGGSTYYADSVKGRFTISRDNSKNTLYLQMNSLRAEDTAVYYCAADPVSRWPKHGGGDYWGQGTLVTVSSGGGGSGGGGSGGGGSGGGGSDIQMTQSPSSLSASVGDRVTITCRASQGISSSLAWYQQKPGKAPKLLIYAASTLQSGVPSRFSGSGSGTDFTLTISSLQPEDFATYYCQQSYSTPWTFGQGTKVEIK
B6: MAdCAM Antibody Table 2 clone 5 (antibody, V domains shown)
VH: EVQLLESGGGLVQPGGSLRLSCAASGFTFSSYWMHWVRQAPGKGLEWVSSISPGGSNIDYADSVKGRFTISRDNSKNTLYLQMNSLRAEDTAVYYCAREVQLSHYDYWGQGTLVTVSS
VL: B2 VL with I28G, G30S, T31N, N32S, S91A, Y92N, R93S, L94F
B7: MAdCAM Antibody Table 2 clone 2 (antibody, V domains shown)
VH: QVQLVQSGAEVKKPGASVKVSCKASGYPFIGYYLHWVRQAPGQGLEWMGIINPSGGSTSYAQKFQGRVTMTRDTSTSTVYMELSSLRSEDTAVYYCAREGRLSYGMDAWGQGTLVTVSS
VL: DIQMTQSPSSLSASVGDRVTITCRASQSISSYLAWYQQKPGKAPKLLIYGASTLESGVPSRFSGSGSGTDFTLTISSLQPEDFATYYCQQTWGPPFTFGQGTKLEIK
B8: MAdCAM Antibody Table 2 clone 3 (antibody, V domains shown)
VH: B7 VH with Y32Q
VL: B7 VL
B9: MAdCAM antibody Table 1 clone 25 (scFv)
scFv: QVQLVQSGAEVKKPGASVKVSCKASGYTLTTWYMYWVRQAPGQGLEWMGWINPNRGATNYAQKFQGRVTMTRDTSTSTVYMELSSLRSEDTAVYYCAKGDLWGAMDVWGQGTLVTVSSGGGGSGGGGSGGGGSGGGGSDIQMTQSPSSLSASVGDRVTITCRASDNIGSWLAWYQQKPGKAPKLLIYAASSLQSGVPSRFSGSGSGTDFTLTISSLQPEDFATYYCQQGYSTPPTFGQGTKVEIK
B10: MAdCAM antibody Table 1 clone 30 (scFv)
scFv: B9 scFv
B11: MAdCAM Antibody Table 2 clone 40 (antibody, V domains shown)
VH: QVQLVQSGAEVKKPGASVKVSCKASGYTLTTWYMYWVRQAPGQGLEWMGWINPNRGATNYAQKFQGRVTMTRDTSTSTVYMELSSLRSEDTAVYYCAKGDLWGAMDVWGQGTLVTVSS
VL: B2 VL with Q27D, I28N, T31S, N32W, G50A, S91G, R93S, L94T, F96P
B12: MAdCAM Antibody Table 2 clone 32 (antibody, V domains shown)
VH: B11 VH
VL: B2 VL with Q27D, I28N, T31S, N32W, G50A, S91G, R93S, L94T, F96P
B13: MAdCAM Antibody Table 2 clone 33 (antibody, V domains shown)
VH: B11 VH with L113T
VL: B2 VL with Q27D, I28N, T31S, N32W, G50A, S91G, R93S, L94T, F96P
B14: MAdCAM Antibody Table 2 clone 35 (antibody, V domains shown)
VH: QVQLVQSGAEVKKPGASVKVSCKASGYTFTGYYIHWVRQAPGQGLEWMGWMNPNSGNTGYAQKFQGRVTMTRDTSTSTVYMELSSLRSEDTAVYYCARDPGFLGYSSGGSSYDGWFDPWGQGTLVTVSS
VL: B7 VL with A34H, G50A, T53S, E55Q, T91S, W92Y, G93T, P94A, F96Y
B15: MAdCAM antibody Table 1 clone 8 (scFv)
scFv: EVQLLESGGGLVQPGGSLRLSCAASGFMFGDYAMHWVRQAPGKGLEWVSAISGSGGSTYYADSVKGRFTISRDNSKNTLYLQMNSLRAEDTAVYYCAKDLVVAGIWYFDLWGRGTLVTVSSGGGGSGGGGSGGGGSGGGGSDIQMTQSPSSLSASVGDRVTITCRASQGISNNLNWYQQKPGKAPKLLIYDASSLESGVPSRFSGSGSGTDFTLTISSLQPEDFATYYCQQTHSFPSTFGQGTKLEIK

Amino acid sequences for entries named in this document (tags omitted). A change or cut given only in a name is not applied to a line headed by its entry. Residues count along the entry.
UniProt Q13477: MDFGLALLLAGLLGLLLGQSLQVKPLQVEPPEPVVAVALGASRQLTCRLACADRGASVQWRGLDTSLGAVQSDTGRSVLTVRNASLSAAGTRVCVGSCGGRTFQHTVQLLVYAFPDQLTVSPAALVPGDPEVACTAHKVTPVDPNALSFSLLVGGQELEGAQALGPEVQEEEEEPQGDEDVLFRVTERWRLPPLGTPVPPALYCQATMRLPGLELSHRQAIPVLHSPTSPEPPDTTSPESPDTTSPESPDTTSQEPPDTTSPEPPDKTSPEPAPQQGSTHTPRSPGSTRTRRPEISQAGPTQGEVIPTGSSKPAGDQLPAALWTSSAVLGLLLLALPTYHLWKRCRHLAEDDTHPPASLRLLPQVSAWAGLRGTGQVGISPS
human MAdCAM expressed on cells: residues 19-382 of Q13477
human MAdCAM protein: residues 19-317 of Q13477
UniProt Q61826: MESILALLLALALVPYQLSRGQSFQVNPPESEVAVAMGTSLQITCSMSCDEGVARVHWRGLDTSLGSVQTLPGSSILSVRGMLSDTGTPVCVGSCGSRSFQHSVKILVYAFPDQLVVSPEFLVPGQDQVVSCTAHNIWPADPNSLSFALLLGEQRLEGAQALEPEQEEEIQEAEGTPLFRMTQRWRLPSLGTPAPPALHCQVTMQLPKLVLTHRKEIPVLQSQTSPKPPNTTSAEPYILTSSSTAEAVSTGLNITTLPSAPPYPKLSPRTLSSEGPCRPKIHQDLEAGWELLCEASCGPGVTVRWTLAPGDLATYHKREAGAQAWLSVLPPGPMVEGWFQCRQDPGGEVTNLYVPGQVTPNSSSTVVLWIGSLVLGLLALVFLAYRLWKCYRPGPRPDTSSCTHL
mouse MAdCAM expressed on cells: residues 22-405 of Q61826
recombinant mouse MAdCAM-1: residues 22-364 of Q61826

target: human MAdCAM protein (human) (UniProt Q13477); experiment: Octet

| binding | Binder |
| --- | --- |
| binds | B1 |
| binds | B2 |
| binds | B3 |
| binds | B4 |
| binds | B5 |
| binds | B6 |

target: recombinant mouse MAdCAM-1 (mouse) (UniProt Q61826); experiment: Octet

| binding | Binder |
| --- | --- |
| binds | B1 |
| binds | B4 |
| binds | B5 |
| binds | B6 |

target: mouse MAdCAM expressed on cells (mouse) (UniProt Q61826); experiment: cell binding

| binding | Binder |
| --- | --- |
| binds | B1 |
| binds | B3 |
| binds | B4 |
| binds | B5 |
| binds | B7 |
| binds | B8 |
| binds | B6 |

target: human MAdCAM expressed on cells (human) (UniProt Q13477); experiment: cell binding

| binding | Binder |
| --- | --- |
| binds | B1 |
| binds | B9 |
| binds | B10 |
| binds | B2 |
| binds | B11 |
| binds | B12 |
| binds | B13 |
| binds | B3 |
| binds | B4 |
| binds | B5 |
| binds | B7 |
| binds | B8 |
| binds | B6 |
| binds | B14 |
| binds | B15 |
